Test results published in PMC8468555.
No constants are given. Whether binding was seen depends on the method and setting. In cells and extracts the contact can be indirect. Some binding calls cover weakened binding; strength is not graded here.

Amino acid sequences for entries named in this document (tags omitted). A change or cut given only in a name is not applied to a line headed by its entry. Chains listed by the source or under a name are the forms on record and can include a tag or linker. Residues count along the entry.
dystrophin Dp71 (P11532-7, form named): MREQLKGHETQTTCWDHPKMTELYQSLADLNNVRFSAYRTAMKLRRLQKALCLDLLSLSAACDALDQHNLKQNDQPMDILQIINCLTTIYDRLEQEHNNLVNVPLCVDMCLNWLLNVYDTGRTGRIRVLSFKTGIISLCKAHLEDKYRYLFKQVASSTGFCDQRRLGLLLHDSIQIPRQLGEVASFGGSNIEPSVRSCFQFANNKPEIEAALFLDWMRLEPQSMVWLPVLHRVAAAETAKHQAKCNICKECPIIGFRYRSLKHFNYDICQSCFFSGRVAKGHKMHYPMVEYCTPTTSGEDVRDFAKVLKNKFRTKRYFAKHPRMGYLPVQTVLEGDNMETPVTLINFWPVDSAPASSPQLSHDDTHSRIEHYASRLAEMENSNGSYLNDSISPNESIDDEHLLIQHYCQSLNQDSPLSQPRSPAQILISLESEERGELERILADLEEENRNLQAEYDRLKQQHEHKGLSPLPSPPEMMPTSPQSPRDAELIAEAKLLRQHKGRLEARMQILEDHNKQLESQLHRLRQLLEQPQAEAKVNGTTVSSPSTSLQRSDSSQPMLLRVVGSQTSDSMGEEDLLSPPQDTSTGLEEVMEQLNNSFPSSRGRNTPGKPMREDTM
UniProt P25705, residues 44-553: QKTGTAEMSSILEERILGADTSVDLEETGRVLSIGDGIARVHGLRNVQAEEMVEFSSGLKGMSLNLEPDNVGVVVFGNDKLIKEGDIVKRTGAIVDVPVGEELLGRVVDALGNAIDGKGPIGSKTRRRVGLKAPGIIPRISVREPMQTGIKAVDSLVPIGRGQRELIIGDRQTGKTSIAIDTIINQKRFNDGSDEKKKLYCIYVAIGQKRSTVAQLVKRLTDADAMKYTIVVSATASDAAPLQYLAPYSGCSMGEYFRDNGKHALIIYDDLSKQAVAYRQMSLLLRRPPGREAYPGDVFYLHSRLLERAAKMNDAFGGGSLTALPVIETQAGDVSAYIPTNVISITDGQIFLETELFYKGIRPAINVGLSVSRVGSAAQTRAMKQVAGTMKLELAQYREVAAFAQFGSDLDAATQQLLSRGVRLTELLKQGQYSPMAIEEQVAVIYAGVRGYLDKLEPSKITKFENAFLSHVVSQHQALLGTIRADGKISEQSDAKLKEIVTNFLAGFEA
UniProt P21796: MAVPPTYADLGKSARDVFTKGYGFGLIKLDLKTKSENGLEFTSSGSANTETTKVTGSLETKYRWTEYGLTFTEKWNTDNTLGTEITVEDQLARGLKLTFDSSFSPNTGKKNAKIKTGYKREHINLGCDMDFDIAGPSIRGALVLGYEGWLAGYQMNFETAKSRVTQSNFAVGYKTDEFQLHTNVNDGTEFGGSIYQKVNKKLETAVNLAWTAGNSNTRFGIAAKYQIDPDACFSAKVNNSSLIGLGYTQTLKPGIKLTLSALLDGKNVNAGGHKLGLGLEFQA

Columns and labels:
[1] = target: dystrophin Dp71 (human (endogenous in primary cultured myocytes of patient DMD3)) (UniProt P11532); assay: co-IP; mouse anti-dystrophin (7A10, sc-47760) coupled to Dynabeads M-270 Epoxy; total protein lysate of DMD3-derived primary cultured myocytes, lysis buffer with 0.1% SDS; western blot for dystrophin, ATP5A, VDAC1, COXIV
[2] = target: ATP5A (human (endogenous in primary cultured myocytes of patient DMD3)) (UniProt P25705); assay: co-IP; reciprocal: mouse anti-ATP5A (ab14748) coupled to Dynabeads M-270 Epoxy; total protein lysate of DMD3-derived primary cultured myocytes, lysis buffer with 0.1% SDS; western blot for dystrophin, ATP5A, VDAC1, COXIV

binding [1] | binding [2] | Substance
binds weakly | – | ATP5A (from UniProt P25705 44-553)
no binding | no binding | VDAC1 (from UniProt P21796 1-283)
– | binds weakly | dystrophin Dp71 (from UniProt P11532-7 1-617)
